Residue numbers refer to the chain shown, from its start. Results are given in words; binding and its absence hold for the method and conditions named. Binding seen in cells or lysates may run through a third protein. Binding can be weak; no strength is given. Sequences can lack the tags named with a protein.

Experiment in all cases: co-IP; FLAG-TNK1 (WT or mutants) precipitated on anti-DYKDDDDK resin from HEK-293T lysate (10 mM HEPES KOH pH 7.5, 150 mM KCl, 0.01% IGEPAL), 1 h 4 °C, washed with PBS; immunoblotted for 14-3-3 or ubiquitin; in Fig. 2c cells treated with 1 uM kinase inhibitors for 4 h
Background: Immunoblotting shows a protein as a band on a membrane.

For one assay, the target named is T1, FLAG-TNK1 S505A (human) (UniProt Q13470).
T1 sequence: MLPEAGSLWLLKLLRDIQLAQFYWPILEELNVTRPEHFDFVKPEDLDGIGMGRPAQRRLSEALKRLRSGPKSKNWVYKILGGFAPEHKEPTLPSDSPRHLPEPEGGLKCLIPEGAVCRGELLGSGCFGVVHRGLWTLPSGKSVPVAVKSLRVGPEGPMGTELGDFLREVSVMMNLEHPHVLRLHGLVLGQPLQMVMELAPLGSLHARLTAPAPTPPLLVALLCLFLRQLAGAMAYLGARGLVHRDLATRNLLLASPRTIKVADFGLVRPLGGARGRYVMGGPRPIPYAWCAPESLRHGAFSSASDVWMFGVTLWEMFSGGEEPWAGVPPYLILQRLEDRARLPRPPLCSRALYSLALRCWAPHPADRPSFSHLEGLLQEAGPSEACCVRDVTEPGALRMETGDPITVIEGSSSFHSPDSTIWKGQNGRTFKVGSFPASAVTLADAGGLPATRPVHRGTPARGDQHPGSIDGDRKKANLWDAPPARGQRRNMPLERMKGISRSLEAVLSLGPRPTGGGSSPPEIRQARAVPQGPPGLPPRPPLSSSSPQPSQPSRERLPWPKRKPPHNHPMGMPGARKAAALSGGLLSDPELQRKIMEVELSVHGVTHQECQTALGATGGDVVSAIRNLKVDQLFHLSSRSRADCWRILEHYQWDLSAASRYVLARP

Another assay addresses T2, FLAG-TNK1 S500A (human) (UniProt Q13470).
T2 sequence: T1 sequence with S500A, A505S

The target in another assay is T3, FLAG-TNK1 S502A (human) (UniProt Q13470).
T3 sequence: T1 sequence with S502A, A505S

On to “14-3-3 (endogenous, isoform not told) (human (endogenous in HEK-293T or A549))”, for which the binding entry with FLAG-TNK1 S505A (human) is given as “binds”; with FLAG-TNK1 S500A (human), “binds”; with FLAG-TNK1 S502A (human), “binds weakly”.

Values taken from publication PMC8429728, “TNK1 is a ubiquitin-binding and 14-3-3-regulated kinase that can be targeted to block tumor growth” (Nature Communications, 2021).
